How the values were obtained:
[1] = tested on: PC3 human prostate adenocarcinoma cells; assay: PC3 cell viability / proliferation assay (MTT); format: cell-based
Protocol: PC3 cells were plated onto 96 well plate (5×10^3 cells/well) in DMEM supplemented with 5% FBS and incubated for 24 h (37° C.; 5% CO2). […] Following incubation, PC3 cells were counted by MTT.

[2] = tested on: murine 4T1 mammary adenocarcinoma cell line; assay: 4T1 proliferation assay (MTT); format: cell-based
[3] = tested on: human MDA-MB-231 mammary adenocarcinoma cell line; assay: MDA-MB-231 proliferation assay (MTT); format: cell-based
[4] = tested on: 4T1-mCherry murine mammary adenocarcinoma in the tibia; conditions: female, Balb/c, mouse, in vivo

## NCCCC(O)(P(=O)(O)O)P(=O)(O)O [ALN, (4-amino-1-hydroxybutylidene)bisphosphonic acid]
[1]
  toxicity to PC3 cells: toxic only at the highest concentration tested of 10 μM
[2]
  toxicity to 4T1 cells: toxic only at the highest concentration tested of 10 μM
[3]
  toxicity to MDA-MB-231 cells: toxic only at the highest concentration tested of 10 μM
[4]
  toxicity: body weight change and mortality: very toxic and caused severe body weight loss and mortality within 2 injections
